This note sets out measurements from patent publication US10501412B2 (HANGZHOU DAC BIOTECH CO., LTD., priority 2012, dated 2019).

Data set [1] is described as follows: peptide synthesis. To be noted: coupling step.
The nature of data set [2]: general procedure: peptide synthesis; Boc SPPS: Merrifield, modified PAM or MBHA resin; Fmoc SPPS: Wang, 2-chlorotrityl, HMPB or MBHA resin; TBTU or PyBrOP, DIPEA. The note with it: late stage modification step.

For the substance “(4R)-4-(2-((1R,3R)-1-acetoxy-3-((2S,3S)—N,3-dimethyl-2-((R)-1-methylpiperidine-2-carboxamido)pentanamido)-4-methylpentyl)thiazole-4-carboxamido)-2-methyl-5-(4-(phosphonooxy)-3-(4-(pyridin-2-yldisulfanyl)butanamido)phenyl)pentanoic Acid”, in data set [1], the step yield was 71%.
As to “(4R)-4-(2-((1R,3R)-1-acetoxy-3-((2S,3S)—N,3-dimethyl-2-((R)-1-methylpiperidine-2-carboxamido)pentanamido)-4-methylpentyl)thiazole-4-carboxamido)-5-(3-(4-mercaptobutanamido)-4-(phosphonooxy)phenyl)-2-methylpentanoic Acid”, in data set [2], the step yield is recorded as 85%.
For the substance “(4R)-4-(2-((1R,3R)-1-acetoxy-3-((2S,3S)—N,3-dimethyl-2-((R)-1-methylpiperidine-2-carboxamido)pentanamido)-4-methylpentyl)thiazole-4-carboxamido)-5-(3-(3-(2-(2-(2-(2,5-dioxo-2,5-dihydro-1H-pyrrol-1-yl)ethoxy)ethoxy)ethoxy)-propanamido)-4-(phosphonooxy)phenyl)-2-methylpentanoic Acid”, the step yield in data set [1] is reported as 76%.
